Results: patent US12325708B2, “Adenosine 2 receptor antagonists” (Nektar Therapeutics, priority 2019, dated 2025)
Some of these results come from one statement about several compounds together.

Molecular target: T1, A2A receptor (Homo sapiens, UniProt P29274)
T1 construct: purchased
Experiment: Radioligand receptor binding assay, A2A receptor
Conditions: statement on Table 7
Experimental: Using conventional receptor binding assay techniques, Compounds 1-24 were assayed to determine binding activity at the A2A, A1, and A3 receptors with the results shown in Table 7.
Receptor binding affinity of Compounds 1-24 was measured using radioligand binding assays using commercially obtained cell membranes prepared from cell lines overexpressing the A2A, A1, or A3 receptors. Briefly, cell membrane preparations from cells expressing the specific receptor were mixed with the appropriate [^3H]-labeled tracer for the specific receptor and the test compound or a known inhibitor of receptor-ligand binding. Following 60 min incubation at room temperature to allow receptor-ligand complex formation, the complexes were collected by filtration, washed with 50 mM Tris HCl (pH 7.5) to remove radioligand that was not receptor-bound, and the remaining radioactivity determined by liquid scintillation counting. Specific radioligand binding was calculated for each test compound concentration and IC50 values were determined by non-linear, regression analysis. Inhibition constants (Ki) were calculated using the equation of Cheng and Prusoff using the observed IC50 of the tested compound, the concentration of radioligand employed in the assay and the experimentally determined values for the Kd of the ligand.

| SMILES | Selectivity of affinity for A2A over A1 or A3 receptors |
| --- | --- |
| [2H]C([2H])([2H])OCCOc1ccc(N2CCN(CCN(C)c3cc4nc(-c5ncco5)nn4c(N)n3)CC2)c(F)c1 [Compound 10, N^7-{2-[4-(2-fluoro-4-{2-[(^2H3)methyloxy]ethoxy}phenyl)piperazin-1-yl]ethyl}-N^7-methyl-2-(1,3-oxazol-2-yl)[1,2,4]triazolo[1,5-c]pyrimidine-5,7-diamine] | selective affinity for the A2A receptor over either of the A1 or A3 receptors |
| [2H]C([2H])([2H])OCCOc1cnc(N2CCN(CCN(C)c3cc4nc(-c5ncco5)nn4c(N)n3)CC2)c(F)c1 [Compound 11, N^7-{2-[4-(3-fluoro-5-{2-[(^2H3)methyloxy]ethoxy}pyridin-2-yl)piperazin-1-yl]ethyl}-N^7-methyl-2-(1,3-oxazol-2-yl)[1,2,4]triazolo[1,5-c]pyrimidine-5,7-diamine] | selective affinity for the A2A receptor over either of the A1 or A3 receptors |
| [2H]C([2H])([2H])OC([2H])([2H])C([2H])([2H])Oc1ccc(N2CCN(CCN(C)c3cc4nc(-c5ncco5)nn4c(N)n3)CC2)cc1 [Compound 12, N^7-methyl-N^7-(2-{4-[4-({2-[(^2H3)methyloxy](^2H4)ethyl}oxy)phenyl]piperazin-1-yl}ethyl)-2-(1,3-oxazol-2-yl)[1,2,4]triazolo[1,5-c]pyrimidine-5,7-diamine] | selective affinity for the A2A receptor over either of the A1 or A3 receptors |
| [2H]C([2H])([2H])OC([2H])([2H])C([2H])([2H])Oc1cnc(N2CCN(CCN(C)c3cc4nc(-c5ncco5)nn4c(N)n3)CC2)c(F)c1 [Compound 13, N^7-(2-{4-[3-fluoro-5-({2-[(^2H3)methyloxy](^2H4)ethyl}oxy)pyridin-2-yl]piperazin-1-yl}ethyl)-N^7-methyl-2-(1,3-oxazol-2-yl)[1,2,4]triazolo[1,5-c]pyrimidine-5,7-diamine] | selective affinity for the A2A receptor over either of the A1 or A3 receptors |
| COCCOc1cnc(N2CCN(CCN(C)c3cc4nc(-c5ncco5)nn4c(N)n3)CC2)c(Cl)c1 [Compound 14, N^7-(2-{4-[3-chloro-5-(2-methoxyethoxy)pyridin-2-yl]piperazin-1-yl}ethyl)-N^7-methyl-2-(1,3-oxazol-2-yl)[1,2,4]triazolo[1,5-c]pyrimidine-5,7-diamine] | selective affinity for the A2A receptor over either of the A1 or A3 receptors |
| COCCOc1ccc(N2CCN(CCN(C)c3cc4nc(-c5ncco5)nn4c(N)n3)CC2)c(Cl)c1 [Compound 15, N^7-(2-{4-[2-chloro-4-(2-methoxyethoxy)phenyl]piperazin-1-yl}ethyl)-N^7-methyl-2-(1,3-oxazol-2-yl)[1,2,4]triazolo[1,5-c]pyrimidine-5,7-diamine] | selective affinity for the A2A receptor over either of the A1 or A3 receptors |
| [2H]C([2H])([2H])OC([2H])([2H])C([2H])([2H])Oc1ccc(N2CCN(C([2H])([2H])C([2H])([2H])N(c3cc4nc(-c5ncco5)nn4c(N)n3)C([2H])([2H])[2H])CC2)cc1 [Compound 16, N^7-(^2H3)methyl-N^7-[2-{4-[4-({2-[(^2H3)methyloxy](^2H4)ethyl}oxy)phenyl]piperazin-1-yl}(^2H4)ethyl]-2-(1,3-oxazol-2-yl)[1,2,4]triazolo[1,5-c]pyrimidine-5,7-diamine] | selective affinity for the A2A receptor over either of the A1 or A3 receptors |
| COCCOc1ccc(N2CCN(CCN(C)c3cc4nc(-c5ncco5)nn4c(N)n3)CC2)c(OC)c1 [Compound 17, N^7-(2-{4-[2-methoxy-4-(2-methoxyethoxy)phenyl]piperazin-1-yl}ethyl)-N^7-methyl-2-(1,3-oxazol-2-yl)[1,2,4]triazolo[1,5-c]pyrimidine-5,7-diamine] | selective affinity for the A2A receptor over either of the A1 or A3 receptors |
| [2H]C([2H])([2H])OC([2H])([2H])C([2H])([2H])Oc1ccc(N2CCN(CCN(c3cc4nc(-c5ncco5)nn4c(N)n3)C([2H])([2H])[2H])CC2)cc1 [Compound 18, N^7-(^2H3)methyl-N^7-(2-{4-[4-({2-[(^2H3)methyloxy](^2H4)ethyl}oxy)phenyl]piperazin-1-yl}ethyl)-2-(1,3-oxazol-2-yl)[1,2,4]triazolo[1,5-c]pyrimidine-5,7-diamine] | selective affinity for the A2A receptor over either of the A1 or A3 receptors |
| COCCOc1cnc(N2CCN(CCN(C)c3cc4nc(-c5ncco5)nn4c(N)n3)CC2)c(C(F)(F)F)c1 [Compound 19, N^7-(2-{4-[5-(2-methoxyethoxy)-3-(trifluoromethyl)pyridin-2-yl]piperazin-1-yl}ethyl)-N^7-methyl-2-(1,3-oxazol-2-yl)[1,2,4]triazolo[1,5-c]pyrimidine-5,7-diamine] | selective affinity for the A2A receptor over either of the A1 or A3 receptors |
| [2H]C([2H])([2H])OC([2H])([2H])C([2H])([2H])Oc1ccc(N2C([2H])([2H])C([2H])([2H])N(C([2H])([2H])C([2H])([2H])N(c3cc4nc(-c5ncco5)nn4c(N)n3)C([2H])([2H])[2H])C([2H])([2H])C2([2H])[2H])cc1 [Compound 20, N^7-(^2H3)methyl-N^7-[2-{4-[4-({2-[(^2H3)methyloxy](^2H4)ethyl}oxy)phenyl](^2H8)piperazin-1-yl}(^2H4)ethyl]-2-(1,3-oxazol-2-yl)[1,2,4]triazolo[1,5-c]pyrimidine-5,7-diamine] | selective affinity for the A2A receptor over either of the A1 or A3 receptors |
| COCCOc1cnc(N2CCN3[C@H](CC[C@H]3CN(C)c3cc4nc(-c5ncco5)nn4c(N)n3)C2)c(F)c1 [Compound 21, N^7—({(6S,8aR)-2-[3-fluoro-5-(2-methoxyethoxy)pyridin-2-yl]octahydropyrrolo[1,2-a]pyrazin-6-yl}methyl)-N^7-methyl-2-(1,3-oxazol-2-yl)[1,2,4]triazolo[1,5-c]pyrimidine-5,7-diamine] | selective affinity for the A2A receptor over either of the A1 or A3 receptors |
| COCCOc1ncc(N2CCN(CCN(C)c3cc4nc(-c5ncco5)nn4c(N)n3)CC2)cc1C(F)(F)F [Compound 22, N^7-(2-{4-[6-(2-methoxyethoxy)-5-(trifluoromethyl)pyridin-3-yl]piperazin-1-yl}ethyl)-N^7-methyl-2-(1,3-oxazol-2-yl)[1,2,4]triazolo[1,5-c]pyrimidine-5,7-diamine] | selective affinity for the A2A receptor over either of the A1 or A3 receptors |
| COCCOc1ccc(N2CCN(CCN(C)c3cc4nc(-c5ncco5)nn4c(N)n3)CC2)nc1 [Compound 23, N^7-(2-{4-[5-(2-methoxyethoxy)pyridin-2-yl]piperazin-1-yl}ethyl)-N^7-methyl-2-(1,3-oxazol-2-yl)[1,2,4]triazolo[1,5-c]pyrimidine-5,7-diamine] | selective affinity for the A2A receptor over either of the A1 or A3 receptors |
| COCCOc1ccc(N2CCN(CCNc3cc4nc(-c5ncco5)nn4c(N)n3)CC2)cc1 [Compound 24, N^7-(2-{4-[4-(2-methoxyethoxy)phenyl]piperazin-1-yl}ethyl)-2-(1,3-oxazol-2-yl)[1,2,4]triazolo[1,5-c]pyrimidine-5,7-diamine] | selective affinity for the A2A receptor over either of the A1 or A3 receptors |
